The assay concerns the target MMP-9 (PMA-activated) (Homo sapiens (Human)). Kind of assay: table heading; found by phage selection on biotinylated MMP-9.

These are yes or no findings as the source states them, for the method shown. A result given as binding can be weak or reduced; the word gives no strength.

B1: M0078-G07 (Fab, V domains shown)
VH: EVQLLESGGGLVQPGGSLRLSCAASGFTFSSYTMEWVRQAPGKGLEWVSWISPSGGYTFYADSVKGRFTISRDNSKNTLYLQMNSLRAEDTALYYCARGYSYGSIDLWGRGTLVTVSS
VL: DIQMTQSPGTLSVSPGERATLSCRASQSVSSDLAWYQHKPGQAPRLLIYGVSTKATGVPARFSGSGSGTEFTLTISSLQSEDLAVYYCQQYHNWPPLTFGGGTKVEIK
Consider B1, for which the binding entry was “binds”.

B2: M0076-D03 (Fab, V domains shown)
VH: EVQLLESGGGLVQPGGSLRLSCAASGFTFSLYRMNWVRQAPGKGLEWVSYIGSSGGATAYADSVKGRFTISRDNSKNTLYLQMNSLRAEDTAVYYCARGAWYLDSWGQGTLVTVSS
VL: DIQMTQSPSSLSASVGDRVTITCRASQGIRNDLDWYQQKPGTAPKRLIYSASNLQSGVPSRFSGSGSGTEFTLTISNLQPEDLATYFCLQHNSFPLTFGQGTKVEIK
As for B2, the binding entry is “binds”.

(Values after patent US20110135573A1, “METALLOPROTEINASE 9 AND METALLOPROTEINASE 2 BINDING PROTEINS” (DYAX CORP., priority 2009, published 2011).)
